Data as given in patent US11931356B1, “Compositions and methods for treating human papilloma virus infections” (priority 2022, dated 2024).
Where two headings read alike, the source gives them in different places. Some results were stated once for a whole list of compounds, not compound by compound.

Chains of the proteins cited; added tags and fusions are not shown. Residues count along the entry.
UniProt P03126, 8-158: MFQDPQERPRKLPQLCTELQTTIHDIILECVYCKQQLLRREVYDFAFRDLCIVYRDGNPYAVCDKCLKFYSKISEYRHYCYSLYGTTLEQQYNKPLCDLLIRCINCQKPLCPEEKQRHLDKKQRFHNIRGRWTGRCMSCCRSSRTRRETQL
UniProt P03126, 8-158 C58S: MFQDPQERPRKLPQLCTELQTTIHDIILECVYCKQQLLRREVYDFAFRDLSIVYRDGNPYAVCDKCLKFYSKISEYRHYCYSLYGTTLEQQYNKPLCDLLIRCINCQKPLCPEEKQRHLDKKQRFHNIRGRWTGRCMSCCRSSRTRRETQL

Experiments:
[1] = molecular target: HPV-16 E6 protein with Cys51 (Human papillomavirus type 16, UniProt P03126); assay type: binding; details: whole protein mass spectrum
[2] = molecular target: C51S (cysteine 51 mutation to serine) HPV-16 E6 protein (Human papillomavirus type 16, UniProt P03126, C58S); test: whole protein mass spectra of mutant C51S HPV-16 E6 protein upon exposure to compound; assay type: binding, human papilloma virus 16; details: whole protein mass spectrum; cysteine 51 replaced by serine

Row | Compound | mass shift of the C51S HPV-16 E6 protein upon exposure to compound [2] | further results
1 | C=CC(=O)N1CCN(c2nc(CCc3ccc(F)c(OC)c3)nc3sc4c(c23)CCCC4)CC1 [Compound 1] | not detected | mass shift of the HPV-16 E6 protein upon exposure to compound (covalent bonding at Cys51) ([1]; listed as compound 1): covalently bonded to the Cys51 of the E6 protein
2 | C=CC(=O)N1CCN(c2nc(CCc3ccc(O)c(F)c3)nc3sc4c(c23)CCCC4)CC1 [Compound 2] | not detected | mass shift of the HPV-16 E6 protein upon exposure to compound (covalent bonding at Cys51) ([1]; listed as compound 2): covalently bonded to the Cys51 of the E6 protein
3 | C=CC(=O)N1CCN(c2nc(CCc3ccc(F)c(O)c3)nc3sc4c(c23)CCCC4)CC1 [Compound 3] | not detected | mass shift of the HPV-16 E6 protein upon exposure to compound (covalent bonding at Cys51) ([1]; listed as compound 3): covalently bonded to the Cys51 of the E6 protein
4 | C=CC(=O)N1CCN(c2nc(CCc3cc(F)c(OC)c(F)c3)nc3sc4c(c23)CCCC4)CC1 [Compound 4] | not detected | mass shift of the HPV-16 E6 protein upon exposure to compound (covalent bonding at Cys51) ([1]; listed as compound 4): covalently bonded to the Cys51 of the E6 protein
5 | C=CC(=O)N1CCN(c2nc(CCc3cnc(OC)c(F)c3)nc3sc4c(c23)CCCC4)CC1 [Compound 5] | not detected | mass shift of the HPV-16 E6 protein upon exposure to compound (covalent bonding at Cys51) ([1]; listed as compound 5): covalently bonded to the Cys51 of the E6 protein
6 | C=CC(=O)N1CCN(c2nc(CCc3ccc(OC)c(OC)c3)nc3sc4c(c23)CCCC4)CC1 [Compound 6] | not detected | mass shift of the HPV-16 E6 protein upon exposure to compound (covalent bonding at Cys51) ([1]; listed as compound 6): covalently bonded to the Cys51 of the E6 protein
7 | C=CC(=O)N1CCN(C(=O)CN2CCc3sccc3C2c2cccc3ccccc23)CC1 (stereo not shown) [Compound 7] | not detected | mass shift of the HPV-16 E6 protein upon exposure to compound (covalent bonding at Cys51) ([1]; listed as compound 7): covalently bonded to the Cys51 of the E6 protein
8 | C=CC(=O)N1CCN(c2nc(C3CCCC3)nc3cccc(F)c23)CC1 [Compound 8] | not detected | mass shift of the HPV-16 E6 protein upon exposure to compound (covalent bonding at Cys51) ([1]; listed as compound 8): covalently bonded to the Cys51 of the E6 protein
9 | C=CC(=O)N1CCN(C(=O)CN2CCc3sccc3C2c2cccc3ncccc23)CC1 (stereo not shown) [Compound 9] | not detected | mass shift of the HPV-16 E6 protein upon exposure to compound (covalent bonding at Cys51) ([1]; listed as compound 9): covalently bonded to the Cys51 of the E6 protein
10 | C=CC(=O)N1CCN(c2nc(CCc3ccc(OC)c(F)c3)nc3sc4c(c23)CCCC4)CC1 [Compound 10] | not detected | mass shift of the HPV-16 E6 protein upon exposure to compound (covalent bonding at Cys51) ([1]; listed as compound 10): covalently bonded to the Cys51 of the E6 protein
11 | C=CC(=O)N1CCN(c2nc(CCc3cccc(OC)c3)nc3ccccc23)C(C)C1 (stereo not shown) [Compound 11] | not detected | mass shift of the HPV-16 E6 protein upon exposure to compound (covalent bonding at Cys51) ([1]; listed as compound 11): covalently bonded to the Cys51 of the E6 protein
